The results in this text go back to publication PMC10192748.

The chains behind the UniProt entries cited, without tags or fusion partners.
UniProt Q9ULZ3: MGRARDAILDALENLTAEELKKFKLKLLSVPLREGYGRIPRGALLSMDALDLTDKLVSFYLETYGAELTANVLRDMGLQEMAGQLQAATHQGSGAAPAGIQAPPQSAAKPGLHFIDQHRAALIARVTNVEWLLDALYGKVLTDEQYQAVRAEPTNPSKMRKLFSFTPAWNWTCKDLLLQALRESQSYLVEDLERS

For the experiment, the target named is apoptosis-associated speck-like protein containing a caspase recruitment domain (ASC) (human (endogenous in A549)) (UniProt Q9ULZ3). The experiment can be described thus: co-IP; lysate supernatants of A549 cells exposed to 2 µM BaP for up to four days; anti-ASC antibody (A1170) 2 h at 4°C, Dynabeads Protein-A 1 h at 4°C, washed twice with lysis buffer; immunoblot.

These are yes or no findings as the source states them, for the method shown. Binding seen in cells or lysates may run through a third protein. Some results given as binding are weak or reduced against the parent protein; the word gives no strength.

B1: nucleotide-binding oligomerization domain (NOD)-like receptor protein 1 (NLRP1) (protein, UniProt Q9C000 1-1473)
chain: MAGGAWGRLACYLEFLKKEELKEFQLLLANKAHSRSSSGETPAQPEKTSGMEVASYLVAQYGEQRAWDLALHTWEQMGLRSLCAQAQEGAGHSPSFPYSPSEPHLGSPSQPTSTAVLMPWIHELPAGCTQGSERRVLRQLPDTSGRRWREISASLLYQALPSSPDHESPSQESPNAPTSTAVLGSWGSPPQPSLAPREQEAPGTQWPLDETSGIYYTEIREREREKSEKGRPPWAAVVGTPPQAHTSLQPHHHPWEPSVRESLCSTWPWKNEDFNQKFTQLLLLQRPHPRSQDPLVKRSWPDYVEENRGHLIEIRDLFGPGLDTQEPRIVILQGAAGIGKSTLARQVKEAWGRGQLYGDRFQHVFYFSCRELAQSKVVSLAELIGKDGTATPAPIRQILSRPERLLFILDGVDEPGWVLQEPSSELCLHWSQPQPADALLGSLLGKTILPEASFLITARTTALQNLIPSLEQARWVEVLGFSESSRKEYFYRYFTDERQAIRAFRLVKSNKELWALCLVPWVSWLACTCLMQQMKRKEKLTLTSKTTTTLCLHYLAQALQAQPLGPQLRDLCSLAAEGIWQKKTLFSPDDLRKHGLDGAIISTFLKMGILQEHPIPLSYSFIHLCFQEFFAAMSYVLEDEKGRGKHSNCIIDLEKTLEAYGIHGLFGASTTRFLLGLLSDEGEREMENIFHCRLSQGRNLMQWVPSLQLLLQPHSLESLHCLYETRNKTFLTQVMAHFEEMGMCVETDMELLVCTFCIKFSRHVKKLQLIEGRQHRSTWSPTMVVLFRWVPVTDAYWQILFSVLKVTRNLKELDLSGNSLSHSAVKSLCKTLRRPRCLLETLRLAGCGLTAEDCKDLAFGLRANQTLTELDLSFNVLTDAGAKHLCQRLRQPSCKLQRLQLVSCGLTSDCCQDLASVLSASPSLKELDLQQNNLDDVGVRLLCEGLRHPACKLIRLGLDQTTLSDEMRQELRALEQEKPQLLIFSRRKPSVMTPTEGLDTGEMSNSTSSLKRQRLGSERAASHVAQANLKLLDVSKIFPIAEIAEESSPEVVPVELLCVPSPASQGDLHTKPLGTDDDFWGPTGPVATEVVDKEKNLYRVHFPVAGSYRWPNTGLCFVMREAVTVEIEFCVWDQFLGEINPQHSWMVAGPLLDIKAEPGAVEAVHLPHFVALQGGHVDTSLFQMAHFKEEGMLLEKPARVELHHIVLENPSFSPLGVLLKMIHNALRFIPVTSVVLLYHRVHPEEVTFHLYLIPSDCSIRKAIDDLEMKFQFVRIHKPPPLTPLYMGCRYTVSGSGSGMLEILPKELELCYRSPGEDQLFSEFYVGHLGSGIRLQVKDKKDETLVWEALVKPGDLMPATTLIPPARIAVPSPLDAPQLLHFVDQYREQLIARVTSVEVVLDKLHGQVLSQEQYERVLAENTRPSQMRKLFSLSQSWDRKCKDGLYQALKETHPHLIMELWEKGSKKGLLPLSS
As to B1, the binding result is “binds”.
